PubChem BioAssay AID686937 | Drosophila RNAi Screening Center | 2013
The deposit covers about 23,000 reagents; shown is an unselected part of those that have a named target and a result. 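Reduced-secretion tags in replicate 1 do not always agree with the z-scores; no criterion for assigning the tags was given.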 Names joined by + are all predicted targets of the reagent. The record does not give: the amount of reagent.

Test: 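Genes in the fly needed for secretion of protein constitutively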 (primary screen)
System: Drosophila S2 cells expressing secreted horseradish peroxidase
Knock-down reagent: long dsRNA against Drosophila genes
Timing: about 5.5 days (5 days dsRNA, then 12 h reporter induction)
Treatment: reporter expression induced after 5 days of dsRNA, read 12 h later; inducer not stated
Measured: 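Chemiluminescent measurement of peroxidase in the medium 12 h after reporter induction, following 5 days of dsRNA, given as a z-score per plate; higher means more secretion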
Scale: z-score: higher = more reporter secreted into medium

gene	amplicon	z-score, replicate 1	z-score, replicate 2	z-score, replicate 3	z-score, replicate 4	phenotype, replicate 1
RpS3 (Ribosomal protein S3)	DRSC16838	-2.22	-2.73			reduced secretion
CG2201	DRSC03721	-0.25	-0.22			
CG12307	DRSC02159	0.22	-0.12			
Prosalpha3T (Proteasome alpha3 subunit, Testis-specific)	DRSC15226	0.15	-0.92			
sca (scabrous)	DRSC07677	-0.2	0.16			
TTLL4B (Tubulin tyrosine ligase-like 4B)	DRSC00636	0.15	0.28			
P58IPK	DRSC16404	-0.56	-0.24			
TM4SF (Transmembrane 4 superfamily)	DRSC04661	0.16	0.15			
rl (rolled)	DRSC07833	-0.41	-0.17			
rl (rolled)	DRSC20742	-1.06	-0.57			
rl (rolled)	DRSC21814	-0.8	-0.78			reduced secretion
CG34005	DRSC05700	0.31	0.37			
CG15196	DRSC19643	0.32	0.16			
CG6290	DRSC19979	0.27	0.41			
kermit	DRSC06074	0.41	0.23			
CG34040	DRSC03902	-0.32	0.13			
slmb (supernumerary limbs)	DRSC17056	0.33	0.35			
Actn3 (alpha actinin 3)	DRSC14106	0.07	0.11			
CG6503	DRSC16056	-0.37	-0.4			
Gr21a (Gustatory receptor 21a)	DRSC00366	0.13	-0.02			
CG11555	DRSC00315	0.08	0.07			
CG10979	DRSC12153	0.31	0.31			
Tdg (Thymine DNA glycosylase)	DRSC17119	0.63	0.54			
Tdg (Thymine DNA glycosylase)	DRSC17169	0.32	0.37			
CG14195	DRSC19550	0.16	0.45			
Kdm4A (Lysine demethylase 4A)	DRSC06586	0.36	0.54			
CG2962	DRSC18247	0.58	0.48			
CG30357	DRSC22472	-0.55	0			
ChT (Choline transporter)	DRSC16296	0.29	0.2			
Ssdp (Sequence-specific single-stranded DNA-binding protein)	DRSC16211	0.45	0.71			
CR14033 (pseudo)	DRSC02358	0.51	0.36			
IFT54 (Intraflagellar transport 54)	DRSC15469	0.64	0.44			
Invadolysin	DRSC15527	0.56	0.28			
CG42262 (retired record)	DRSC17628	0.15	-0.28			
CG42262 (retired record)	DRSC17974	0.34	0.27			
CR43359 (pseudo)	DRSC03744	0.28	-0.48			
MED17 (Mediator complex subunit 17)	DRSC16889	-4.26	-3.94			reduced secretion
fne (found in neurons)	DRSC20332	-1.08	-1.31			
fne (found in neurons)	DRSC22418	1.24	0.51			
LSm3 (Like Sm 3)	DRSC15920	0.39	0.27			
CG5043	DRSC02805	-0.25	-0.12			
GABA-B-R2 (metabotropic GABA-B receptor subtype 2)	DRSC14134	0.29	0.16	-0.03	-1.18	
CG33777	DRSC08107	0.04	-0.38			
VhaM9.7-b (Vacuolar H[+] ATPase M9.7 subunit b)	DRSC11841	0.28	0.48			
CG13578	DRSC04214	-0.28	-0.08			
Nup54 (Nucleoporin 54kD)	DRSC07282	-0.26	-0.44			
Argp (Arginine phosphatase)	DRSC16510	0.16	0.72			
CG12065	DRSC17798	0.23	0.26			
CG12065	DRSC17799	0.2	0.46			
RpL30 (Ribosomal protein L30)	DRSC02087	-1.76	-3.7			reduced secretion
rux (roughex)	DRSC18829	0.43	0.36			
Bap111 (Brahma associated protein 111kD)	DRSC18419	-1.11	-0.81	0.61	0.43	reduced secretion
nvd (neverland)	DRSC22139	-0.69	0.22			
CG34230	DRSC05317	-0.13	0.16			
spt4	DRSC07696	0.15	0.4			
CG30089	DRSC06126	0.48	0.24	-0.13	0.43	
CG30089	DRSC06127	-6.32	-2.22			reduced secretion
CG30089	DRSC06267	0.51	-0.11			
CG30089	DRSC06268	0.72	0.4			
CG30089	DRSC21694	1.13	0.51			
CG7465	DRSC08592	0.35	0.43			
CG7465	DRSC22320	-0.92	-0.38			
Crag	DRSC18454	0.26	0.44			
Non3 (Novel nucleolar protein 3)	DRSC16359	0.05	-0.06			
CG7326	DRSC20037	-0.17	0.46			
yellow-g	DRSC08575	0.16	0.3			
Mur18B (Mucin related 18B)	DRSC20063	0.13	0.03			
CR33318 (pseudo)	DRSC22949	0.02	0.04			
CG31717	DRSC01121	0.66	0.28			
CG6962	DRSC16153	-0.41	-1.26			
CG11050	DRSC02125	-0.09	-0.05			
CG30049	DRSC21345	0.25	-0.07			
gammaTub23C (gamma-Tubulin at 23C)	DRSC00820	0.1	0.11			
CG17944	DRSC12572	0	0.01			
nes (nessy)	DRSC11375	0.43	0.28			
Cyp4e2 (Cytochrome P450 4e2)	DRSC07371	0.24	0.25			
okr (okra)	DRSC00834	0.28	0.42			
Mo25	DRSC11224	-1.72	-1.34			reduced secretion
CG6800	DRSC16119	0.44	0.47			
alph (alphabet)	DRSC15398	0.83	0.73			
Cdk12 (Cyclin-dependent kinase 12)	DRSC11836	0.05	0.06			
Ir67a (Ionotropic receptor 67a)	DRSC09897	0.24	0.24			
GstD1 (Glutathione S transferase D1)	DRSC16683	0.05	0.2			
Ote (Otefin)	DRSC07498	0.29	0.47			
CG34323	DRSC18916	0.64	0.22			
betaggt-I (beta subunit of type I geranylgeranyl transferase)	DRSC03494	0.14	0.4			
Odj (Oddjob)	DRSC16234	0.41	0.44			
CG6040	DRSC15954	0.39	0.29			
CG32237	DRSC08312	0.33	0.26			
CG32237	DRSC08315	0.18	0.35			
Doc1 (Dorsocross1)	DRSC11146	0.56	0.32			
Ak1 (Adenylate kinase 1)	DRSC10248	0.2	0.13			
betaGlu (beta glucuronidase)	DRSC15419	0.23	0.12			
EndoGI (Endonuclease G inhibitor)	DRSC01964	0.23	0.2			
Incenp (Inner centromere protein)	DRSC06116	-0.06	-0.21			
Incenp (Inner centromere protein)	DRSC21950	0.71	-0.48			
Uhg3 (U snoRNA host gene 3)	DRSC22963	-0.36	0.36			
CG11537	DRSC08200	0.47	0.57			
CG4546	DRSC15593	0.38	0.28			
CG42557 + CG42558	DRSC13963	0.41	0.23			
CG42557 + CG42558	DRSC16329	0.24	0.15			
CG7220	DRSC05235	0.46	0.48			
CG7220	DRSC07018	0.4	-0.1			
Kul (Kuzbanian-like)	DRSC15404	0.21	0.02			

Taken from above.
P58IPK [DRSC16404], z-score, replicate 1 = -0.56
For “z-score, replicate 2”, CG12307 [DRSC02159] is entered as -0.12
nes (nessy) [DRSC11375], z-score, replicate 2: 0.28
For “z-score, replicate 1”, spt4 [DRSC07696] reads 0.15
For “z-score, replicate 2”, betaggt-I (beta subunit of type I geranylgeranyl transferase) [DRSC03494] has 0.4
Under “z-score, replicate 2”, CG14195 [DRSC19550] is entered as 0.45
